Source: the supplement of paper PMC10849652
The list shows a part of the results.

The chains behind the UniProt entries cited, without tags or fusion partners. Where a name states a change or a piece, a line headed by the entry shows the natural chain unless it says otherwise.
UniProt Q9NU22: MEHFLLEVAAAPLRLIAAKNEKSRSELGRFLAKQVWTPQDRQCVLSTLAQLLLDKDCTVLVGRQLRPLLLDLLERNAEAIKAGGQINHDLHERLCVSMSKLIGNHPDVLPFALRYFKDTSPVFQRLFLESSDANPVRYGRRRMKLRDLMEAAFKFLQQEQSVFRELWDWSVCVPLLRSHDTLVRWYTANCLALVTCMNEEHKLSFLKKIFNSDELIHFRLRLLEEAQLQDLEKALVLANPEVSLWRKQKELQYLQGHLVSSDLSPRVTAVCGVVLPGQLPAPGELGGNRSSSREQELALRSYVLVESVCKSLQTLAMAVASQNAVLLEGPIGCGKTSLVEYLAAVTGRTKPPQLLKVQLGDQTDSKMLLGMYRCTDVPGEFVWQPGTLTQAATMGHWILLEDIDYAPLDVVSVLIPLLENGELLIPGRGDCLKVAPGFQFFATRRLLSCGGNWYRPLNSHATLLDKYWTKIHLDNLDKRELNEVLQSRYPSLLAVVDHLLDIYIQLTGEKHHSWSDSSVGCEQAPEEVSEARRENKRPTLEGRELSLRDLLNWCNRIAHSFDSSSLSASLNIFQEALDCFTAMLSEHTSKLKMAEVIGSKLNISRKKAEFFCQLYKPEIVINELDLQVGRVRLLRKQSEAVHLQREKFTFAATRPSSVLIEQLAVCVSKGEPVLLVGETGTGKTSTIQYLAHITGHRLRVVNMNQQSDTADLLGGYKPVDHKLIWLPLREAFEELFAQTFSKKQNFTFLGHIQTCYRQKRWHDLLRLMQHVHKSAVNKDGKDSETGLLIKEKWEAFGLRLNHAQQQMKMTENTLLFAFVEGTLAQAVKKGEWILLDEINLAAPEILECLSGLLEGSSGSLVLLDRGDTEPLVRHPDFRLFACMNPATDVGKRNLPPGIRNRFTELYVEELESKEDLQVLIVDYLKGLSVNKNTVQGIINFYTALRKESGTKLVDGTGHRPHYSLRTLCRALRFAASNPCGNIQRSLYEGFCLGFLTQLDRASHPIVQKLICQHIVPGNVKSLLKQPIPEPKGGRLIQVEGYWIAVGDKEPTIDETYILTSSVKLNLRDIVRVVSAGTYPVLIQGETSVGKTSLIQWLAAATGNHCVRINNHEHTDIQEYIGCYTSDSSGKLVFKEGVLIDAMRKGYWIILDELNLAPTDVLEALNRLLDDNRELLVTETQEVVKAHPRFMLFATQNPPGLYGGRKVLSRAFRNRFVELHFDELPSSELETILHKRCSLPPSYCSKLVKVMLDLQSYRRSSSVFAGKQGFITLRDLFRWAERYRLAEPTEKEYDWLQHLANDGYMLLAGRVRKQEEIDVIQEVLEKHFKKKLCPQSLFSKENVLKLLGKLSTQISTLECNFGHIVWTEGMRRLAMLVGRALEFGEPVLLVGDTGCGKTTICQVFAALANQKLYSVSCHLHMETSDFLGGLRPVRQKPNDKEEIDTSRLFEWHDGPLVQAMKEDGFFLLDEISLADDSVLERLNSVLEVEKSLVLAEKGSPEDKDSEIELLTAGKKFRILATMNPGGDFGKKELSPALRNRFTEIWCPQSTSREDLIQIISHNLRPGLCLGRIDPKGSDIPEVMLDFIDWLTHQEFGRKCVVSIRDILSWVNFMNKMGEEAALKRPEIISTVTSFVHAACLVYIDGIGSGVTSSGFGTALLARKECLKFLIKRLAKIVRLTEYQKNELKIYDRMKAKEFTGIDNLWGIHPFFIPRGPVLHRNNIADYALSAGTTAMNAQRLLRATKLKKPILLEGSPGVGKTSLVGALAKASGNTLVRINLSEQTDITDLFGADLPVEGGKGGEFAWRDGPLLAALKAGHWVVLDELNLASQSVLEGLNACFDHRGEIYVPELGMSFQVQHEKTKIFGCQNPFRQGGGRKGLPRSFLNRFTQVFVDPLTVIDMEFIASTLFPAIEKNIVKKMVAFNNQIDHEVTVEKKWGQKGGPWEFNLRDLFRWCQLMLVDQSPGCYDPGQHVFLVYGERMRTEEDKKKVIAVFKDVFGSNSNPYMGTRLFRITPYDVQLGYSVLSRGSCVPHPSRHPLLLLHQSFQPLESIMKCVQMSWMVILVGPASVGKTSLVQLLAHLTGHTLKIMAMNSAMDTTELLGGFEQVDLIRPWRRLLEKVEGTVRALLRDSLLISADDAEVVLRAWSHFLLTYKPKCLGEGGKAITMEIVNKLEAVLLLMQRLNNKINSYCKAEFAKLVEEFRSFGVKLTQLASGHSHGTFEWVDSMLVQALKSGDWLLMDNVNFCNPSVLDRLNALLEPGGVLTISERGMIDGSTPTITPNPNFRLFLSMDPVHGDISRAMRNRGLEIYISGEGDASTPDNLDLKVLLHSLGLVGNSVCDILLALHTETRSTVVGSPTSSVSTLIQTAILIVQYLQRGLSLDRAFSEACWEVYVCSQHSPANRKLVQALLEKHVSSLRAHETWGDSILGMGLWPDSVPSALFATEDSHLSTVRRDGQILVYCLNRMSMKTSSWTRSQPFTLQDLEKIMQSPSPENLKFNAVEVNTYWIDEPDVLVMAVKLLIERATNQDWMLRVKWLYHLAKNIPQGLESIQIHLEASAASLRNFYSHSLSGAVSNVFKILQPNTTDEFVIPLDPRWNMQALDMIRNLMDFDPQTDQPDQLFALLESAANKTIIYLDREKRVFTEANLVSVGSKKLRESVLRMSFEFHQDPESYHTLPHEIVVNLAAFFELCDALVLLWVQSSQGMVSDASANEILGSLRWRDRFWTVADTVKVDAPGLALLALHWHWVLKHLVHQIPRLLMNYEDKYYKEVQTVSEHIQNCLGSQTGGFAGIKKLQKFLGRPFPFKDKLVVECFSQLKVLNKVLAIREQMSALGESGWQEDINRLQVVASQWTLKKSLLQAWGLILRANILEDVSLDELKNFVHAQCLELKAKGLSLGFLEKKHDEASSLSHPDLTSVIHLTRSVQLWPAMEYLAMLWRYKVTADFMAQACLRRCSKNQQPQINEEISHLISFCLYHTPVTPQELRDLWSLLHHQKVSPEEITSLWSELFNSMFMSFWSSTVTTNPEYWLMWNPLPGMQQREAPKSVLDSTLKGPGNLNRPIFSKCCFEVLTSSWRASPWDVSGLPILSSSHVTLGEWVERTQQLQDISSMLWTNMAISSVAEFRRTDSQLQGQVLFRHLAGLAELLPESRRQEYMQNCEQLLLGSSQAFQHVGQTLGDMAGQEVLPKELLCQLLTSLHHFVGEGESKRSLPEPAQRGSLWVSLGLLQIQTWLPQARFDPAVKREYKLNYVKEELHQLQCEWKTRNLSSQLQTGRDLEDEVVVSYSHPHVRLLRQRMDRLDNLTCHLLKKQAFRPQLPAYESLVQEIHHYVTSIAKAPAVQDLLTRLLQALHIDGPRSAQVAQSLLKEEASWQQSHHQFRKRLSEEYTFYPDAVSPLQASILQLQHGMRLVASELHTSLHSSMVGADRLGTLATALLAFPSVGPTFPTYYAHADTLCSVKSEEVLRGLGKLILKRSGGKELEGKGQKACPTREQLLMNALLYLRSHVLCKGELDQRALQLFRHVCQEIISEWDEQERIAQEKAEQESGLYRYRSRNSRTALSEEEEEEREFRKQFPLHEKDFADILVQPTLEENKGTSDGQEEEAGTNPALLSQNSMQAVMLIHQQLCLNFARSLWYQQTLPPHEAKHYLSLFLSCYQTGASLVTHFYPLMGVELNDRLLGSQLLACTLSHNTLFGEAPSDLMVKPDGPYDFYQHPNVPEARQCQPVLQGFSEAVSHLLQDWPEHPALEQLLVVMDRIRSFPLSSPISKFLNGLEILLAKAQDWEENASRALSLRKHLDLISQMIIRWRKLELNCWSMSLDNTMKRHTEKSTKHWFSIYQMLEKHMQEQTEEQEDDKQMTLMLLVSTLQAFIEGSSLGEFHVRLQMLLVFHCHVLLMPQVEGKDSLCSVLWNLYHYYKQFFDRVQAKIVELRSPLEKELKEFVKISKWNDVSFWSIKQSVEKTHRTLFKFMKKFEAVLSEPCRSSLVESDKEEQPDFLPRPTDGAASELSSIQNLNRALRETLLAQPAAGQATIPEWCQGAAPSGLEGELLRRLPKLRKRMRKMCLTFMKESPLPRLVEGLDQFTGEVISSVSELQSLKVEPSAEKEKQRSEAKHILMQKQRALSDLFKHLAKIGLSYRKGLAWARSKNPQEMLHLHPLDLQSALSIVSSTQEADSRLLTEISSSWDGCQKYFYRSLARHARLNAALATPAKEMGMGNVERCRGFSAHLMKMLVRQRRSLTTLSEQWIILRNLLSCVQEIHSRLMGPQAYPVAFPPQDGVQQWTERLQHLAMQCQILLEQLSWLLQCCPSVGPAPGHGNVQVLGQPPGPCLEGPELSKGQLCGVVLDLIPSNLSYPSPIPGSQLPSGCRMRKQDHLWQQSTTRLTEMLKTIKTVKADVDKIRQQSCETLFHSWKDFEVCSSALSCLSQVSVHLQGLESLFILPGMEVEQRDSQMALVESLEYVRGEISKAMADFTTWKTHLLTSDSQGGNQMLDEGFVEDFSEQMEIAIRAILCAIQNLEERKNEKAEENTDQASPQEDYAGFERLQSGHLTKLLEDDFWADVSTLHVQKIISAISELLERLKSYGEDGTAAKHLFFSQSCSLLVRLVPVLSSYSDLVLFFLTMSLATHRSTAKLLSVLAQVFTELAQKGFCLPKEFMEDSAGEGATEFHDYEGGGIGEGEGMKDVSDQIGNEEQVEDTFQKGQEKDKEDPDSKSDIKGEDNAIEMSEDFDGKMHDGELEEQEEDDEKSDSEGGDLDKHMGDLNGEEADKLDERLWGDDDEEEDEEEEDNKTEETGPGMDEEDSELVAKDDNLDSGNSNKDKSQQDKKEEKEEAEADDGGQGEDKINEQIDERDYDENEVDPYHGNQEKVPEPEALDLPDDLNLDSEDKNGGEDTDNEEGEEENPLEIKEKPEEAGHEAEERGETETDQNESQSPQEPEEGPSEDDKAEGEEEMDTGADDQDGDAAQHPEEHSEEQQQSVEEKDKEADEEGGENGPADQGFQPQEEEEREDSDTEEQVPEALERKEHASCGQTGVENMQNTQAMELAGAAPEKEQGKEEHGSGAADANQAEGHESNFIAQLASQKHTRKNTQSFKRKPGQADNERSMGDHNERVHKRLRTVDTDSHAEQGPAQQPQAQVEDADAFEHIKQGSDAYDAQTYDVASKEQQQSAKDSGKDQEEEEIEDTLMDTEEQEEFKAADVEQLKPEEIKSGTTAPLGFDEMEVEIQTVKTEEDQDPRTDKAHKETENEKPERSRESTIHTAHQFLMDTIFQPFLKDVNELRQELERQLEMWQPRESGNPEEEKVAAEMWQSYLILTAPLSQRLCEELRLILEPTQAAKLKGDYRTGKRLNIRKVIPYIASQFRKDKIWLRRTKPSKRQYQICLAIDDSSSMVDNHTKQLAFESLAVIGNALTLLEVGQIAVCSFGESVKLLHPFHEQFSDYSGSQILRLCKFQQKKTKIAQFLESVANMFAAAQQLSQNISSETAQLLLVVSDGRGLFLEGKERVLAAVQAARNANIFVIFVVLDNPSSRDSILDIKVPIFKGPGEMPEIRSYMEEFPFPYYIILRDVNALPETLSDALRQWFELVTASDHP
UniProt Q96G25: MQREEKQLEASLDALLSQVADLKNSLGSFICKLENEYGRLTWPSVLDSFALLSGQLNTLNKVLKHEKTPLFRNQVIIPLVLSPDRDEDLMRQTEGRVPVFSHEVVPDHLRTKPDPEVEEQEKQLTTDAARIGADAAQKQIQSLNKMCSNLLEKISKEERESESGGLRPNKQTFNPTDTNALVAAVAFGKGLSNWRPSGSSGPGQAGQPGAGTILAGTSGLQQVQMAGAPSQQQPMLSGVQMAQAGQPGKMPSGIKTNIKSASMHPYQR
UniProt Q15528: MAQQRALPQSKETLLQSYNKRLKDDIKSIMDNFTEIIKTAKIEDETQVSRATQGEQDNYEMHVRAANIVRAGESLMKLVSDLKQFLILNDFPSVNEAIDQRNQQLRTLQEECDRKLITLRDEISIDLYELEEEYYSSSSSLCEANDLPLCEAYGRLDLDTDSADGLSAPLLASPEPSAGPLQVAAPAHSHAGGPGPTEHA
UniProt Q6NUT3: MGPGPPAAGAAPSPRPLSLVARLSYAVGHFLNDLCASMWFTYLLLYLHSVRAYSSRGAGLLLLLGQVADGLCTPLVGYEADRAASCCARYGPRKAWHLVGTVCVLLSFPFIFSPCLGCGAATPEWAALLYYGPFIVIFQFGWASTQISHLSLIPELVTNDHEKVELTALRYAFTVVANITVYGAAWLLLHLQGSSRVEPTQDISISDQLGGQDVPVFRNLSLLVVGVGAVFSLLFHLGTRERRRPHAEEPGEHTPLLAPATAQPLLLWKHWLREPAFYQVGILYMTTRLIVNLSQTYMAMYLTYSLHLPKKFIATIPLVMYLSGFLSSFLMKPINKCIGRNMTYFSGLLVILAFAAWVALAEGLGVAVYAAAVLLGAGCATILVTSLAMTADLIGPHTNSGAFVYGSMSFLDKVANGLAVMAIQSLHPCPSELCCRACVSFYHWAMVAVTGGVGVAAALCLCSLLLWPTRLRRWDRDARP

Tests used:
Experiment in all cases: log2 fold change, soluble protein after heating vs DMSO (PISA); higher = thermal stabilisation; K562 cells, 10 uM, 30 min; active = over 0.2 and 3.5 SD of the protein, either way, in both replicates (recomputed)
saracatinib = compound: CN1CCN(CCOc2cc(OC3CCOCC3)c3c(Nc4c(Cl)ccc5c4OCO5)ncnc3c2)CC1 [saracatinib]
Method in brief: (§1)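 Quantification of soluble protein used TMTpro 16plex LC-MS/MS, with channel sums equalised. Samples were the supernatant after 21,000xg for 90 min of pooled aliquots from K562 cells (2×10^6 cells/mL) treated with 10 μM compound for 30 min, heated for 3 min over 48°C-58°C, and extracted in PBS with 0.5% NP-40 at 4°C. Values, from duplicates, describe thermal stability against control samples on a log2 fold-change scale.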

sotrastaurin = compound: CN1CCN(c2nc(C3=C(c4c[nH]c5ccccc45)C(=O)NC3=O)c3ccccc3n2)CC1 [sotrastaurin]
Method in brief: as §1

Tubastatin A = compound: CN1CCc2c(c3ccccc3n2Cc2ccc(C(=O)NO)cc2)C1 [Tubastatin A]
Method in brief: as §1

[1] = compound: CNC(=O)C1=CC=CC=C1NC2=NC(=NC=C2Cl)NC3=C(C=C(C=C3)N4CCOCC4)OC
Method in brief: as §1

defactinib = compound: CNC(=O)c1ccc(Nc2ncc(C(F)(F)F)c(NCc3nccnc3N(C)S(C)(=O)=O)n2)cc1 [defactinib]
Method in brief: as §1

rucaparib = compound: CNCc1ccc(-c2[nH]c3cc(F)cc4c3c2CCNC4=O)cc1 [rucaparib]
Method in brief: as §1

[2] = compound: CNc1nc(-c2ccc3c(N)n[nH]c3c2)cc(N2C[C@@H](C(=O)NC3CCCCC3)CC[C@H]2C)n1
Method in brief: as §1

encorafenib = compound: COC(=O)N[C@@H](C)CNc1nccc(-c2cn(C(C)C)nc2-c2cc(Cl)cc(NS(C)(=O)=O)c2F)n1 [encorafenib]
Method in brief: as §1

[3] = compound: COC(=O)[C@H](CCSC)NC(=O)C1=C(C=C(C=C1)NC[C@H](CS)N)C2=CC=CC=C2
Method in brief: as §1

[4] = compound: COC1=CC=C(C=C1)CN2C=CC3=C2C=C(C=C3)C(=O)NO
Method in brief: as §1

filanesib = compound: CON(C)C(=O)N1N=C(c2cc(F)ccc2F)S[C@@]1(CCCN)c1ccccc1 [filanesib]
Method in brief: as §1

zotarolimus = compound: CO[C@H]1C[C@@H]2CC[C@@H](C)[C@@](O)(O2)C(=O)C(=O)N2CCCC[C@H]2C(=O)O[C@H]([C@H](C)C[C@@H]2CC[C@H](n3cnnn3)[C@H](OC)C2)CC(=O)[C@H](C)/C=C(\C)[C@@H](O)[C@@H](OC)C(=O)[C@H](C)C[C@H](C)/C=C/C=C/C=C/1C [zotarolimus]
Method in brief: as §1

idasanutlin = compound: COc1cc(C(=O)O)ccc1NC(=O)[C@@H]1N[C@@H](CC(C)(C)C)[C@](C#N)(c2ccc(Cl)cc2F)[C@H]1c1cccc(Cl)c1F [idasanutlin]
Method in brief: as §1

alisertib = compound: COc1cc(Nc2ncc3c(n2)-c2ccc(Cl)cc2C(c2c(F)cccc2OC)=NC3)ccc1C(=O)O [alisertib]
Method in brief: as §1

[5] = compound: COc1cc2nc(-c3cc(F)ccc3O)nc(N[C@@H]3CNC[C@H]3C(C)(C)O)c2cc1OC
Method in brief: as §1

gefitinib = compound: COc1cc2ncnc(Nc3ccc(F)c(Cl)c3)c2cc1OCCCN1CCOCC1 [gefitinib]
Method in brief: as §1

[6] = compound: COc1cccc2cc(-c3nc([C@H]4CC[C@H](C(=O)O)CC4)n4ncnc(N)c34)[nH]c12
Method in brief: as §1

lapatinib = compound: CS(=O)(=O)CCNCc1ccc(-c2ccc3ncnc(Nc4ccc(OCc5cccc(F)c5)c(Cl)c4)c3c2)o1 [lapatinib]
Method in brief: as §1

pictilisib = compound: CS(=O)(=O)N1CCN(Cc2cc3nc(-c4cccc5[nH]ncc45)nc(N4CCOCC4)c3s2)CC1 [pictilisib]
Method in brief: as §1

Measured: log2 fold change

MED16 (UniProt Q9Y2X0)
inactive: saracatinib -0.006 | sotrastaurin -0.044 | Tubastatin A -0.098 | [1] 0.074 | defactinib -0.009 | rucaparib -0.004 | [2] 0.043 | encorafenib -0.025 | [3] -0.052 | [4] -0.032 | filanesib 0.062 | zotarolimus -0.029 | idasanutlin 0.144 | alisertib -0.024 | [5] -0.063 | gefitinib 0.016 | [6] 0.005 | lapatinib 0.064 | pictilisib 0.011

MDN1 (UniProt Q9NU22)
inactive: saracatinib -0.029 | sotrastaurin -0.035 | Tubastatin A 0.033 | [1] -0.092 | defactinib -0.166 | rucaparib -0.067 | [2] 0.018 | encorafenib 0.018 | [3] -0.049 | [4] 0.066 | filanesib -0.095 | zotarolimus -0.002 | idasanutlin -0.058 | alisertib -0.056 | [5] -0.031 | gefitinib -0.003 | [6] 0.022 | lapatinib -0.005 | pictilisib 0.001

MFN2 (UniProt O95140)
active: [5] -0.438
inactive: saracatinib -0.005 | sotrastaurin 0.045 | Tubastatin A 0.02 | [1] -0.024 | defactinib -0.066 | rucaparib 0.041 | [2] 0.058 | encorafenib -0.006 | [3] -0.026 | [4] 0.04 | filanesib -0.112 | zotarolimus 0.016 | idasanutlin 0 | alisertib -0.043 | gefitinib 0.01 | [6] -0.006 | lapatinib 0.027 | pictilisib -0.058

MED8 isoform 2 (UniProt Q96G25)
inactive: saracatinib 0.003 | sotrastaurin 0.044 | [1] 0.039 | defactinib -0.031 | rucaparib 0.04 | [2] -0.131 | encorafenib -0.024 | [3] 0.141 | [4] -0.11 | filanesib 0.033 | zotarolimus -0.004 | idasanutlin 0.095 | alisertib -0.088 | [5] -0.154 | gefitinib -0.034 | [6] -0.041 | lapatinib 0.058

MASTL (UniProt Q96GX5)
inactive: saracatinib 0.107 | sotrastaurin -0.12 | [1] 0.054 | defactinib 0.037 | rucaparib -0.17 | [2] -0.055 | encorafenib 0.083 | [3] 0.079 | [4] 0.147 | filanesib -0.09 | zotarolimus 0.088 | idasanutlin 0.072 | alisertib -0.09 | gefitinib -0.107 | [6] -0.155

MED22 (UniProt Q15528)
inactive: saracatinib -0.089 | sotrastaurin -0.007 | Tubastatin A 0.332 | [1] -0.051 | defactinib -0.043 | rucaparib 0.021 | [2] 0.044 | encorafenib 0.12 | [3] 0.097 | [4] -0.03 | filanesib -0.008 | zotarolimus 0.047 | idasanutlin -0.023 | alisertib 0.019 | gefitinib 0.017 | [6] -0.171

MFSD12 isoform 3 (UniProt Q6NUT3)
inactive: saracatinib -0.154 | sotrastaurin -0.172 | Tubastatin A 0.031 | [1] 0.042 | rucaparib -0.14 | [2] -0.144 | encorafenib 0.196 | filanesib -0.197 | zotarolimus 0.024 | idasanutlin -0.097 | pictilisib 0.069

MED12 isoform 2 (UniProt Q93074)
inactive: saracatinib 0.072 | sotrastaurin -0.09 | Tubastatin A 0.32 | [1] 0.303 | rucaparib 0.137 | [2] 0.102 | encorafenib 0.145 | [4] 0.093 | filanesib 0.256 | idasanutlin 0.103 | alisertib 0.214 | [5] -0.09 | gefitinib 0.024 | [6] 0.007 | lapatinib 0.028 | pictilisib -0.113

MCUR1 (UniProt Q96AQ8)
inactive: saracatinib -0.002 | sotrastaurin 0.053 | Tubastatin A 0.014 | [1] 0.014 | defactinib -0.047 | rucaparib -0.038 | [2] 0.014 | encorafenib -0.009 | [3] -0.028 | [4] -0.042 | filanesib 0.019 | zotarolimus -0.002 | idasanutlin -0.13 | alisertib 0.009 | [5] 0.181 | gefitinib 0.009 | [6] 0.052 | lapatinib -0.009 | pictilisib 0.087

Pulled one by one from the entries so far, 2 records:
MED22 (UniProt Q15528)
inactive: saracatinib -0.089 | sotrastaurin -0.007 | Tubastatin A 0.332 | [1] -0.051 | defactinib -0.043 | rucaparib 0.021 | [2] 0.044 | encorafenib 0.12 | [3] 0.097 | [4] -0.03 | filanesib -0.008 | zotarolimus 0.047 | idasanutlin -0.023 | alisertib 0.019 | gefitinib 0.017 | [6] -0.171

MFSD12 isoform 3 (UniProt Q6NUT3)
inactive: saracatinib -0.154 | sotrastaurin -0.172 | Tubastatin A 0.031 | [1] 0.042 | rucaparib -0.14 | [2] -0.144 | encorafenib 0.196 | filanesib -0.197 | zotarolimus 0.024 | idasanutlin -0.097 | pictilisib 0.069

The results go on:

MATR3 (UniProt P43243)
inactive: saracatinib -0.008 | sotrastaurin -0.012 | Tubastatin A -0.025 | [1] 0.017 | defactinib 0.148 | rucaparib 0.085 | [2] -0.097 | encorafenib -0.127 | [3] -0.145 | [4] 0 | filanesib 0.135 | idasanutlin 0.316 | alisertib -0.244 | gefitinib 0.168 | [6] 0.421 | pictilisib -0.017
